Results on one molecule are retold here after US20060246069A1.

Sequences of proteins named here, by UniProt entry; tags and fusion partners are left off. Residues count along the entry.
UniProt P13500, residues 24-99: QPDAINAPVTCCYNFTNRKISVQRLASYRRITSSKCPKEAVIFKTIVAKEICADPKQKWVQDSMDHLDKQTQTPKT

No constants are given. Whether binding was seen depends on the method and setting. Some entries that bind do so weakly or less than the wild type.

The target of this test is human Monocyte chemoattractant protein-1 (human) (UniProt P13500). Kind of test: ELISA, IgG in two-fold dilutions from 5 µg/mL on immobilized human MCP-1 (0.5 µg/mL), peroxidase-labeled anti-human IgG detection. In general terms: In an ELISA, binding on a coated surface is turned into a signal by an enzyme label.

B1: purified anti-MCP-1 antibody MC32 in the immunoglobulin form (antibody, V domains shown)
VH: QVQLQQSGAEVKKPGSSVKVSCKASGGTFSSYAISWVRQAPGQGLEWMGGFDPEDGETIYAQKFQGRVTMTEDTSTDTAYMELSSLRSEDTAVYYCATDLGGGDYYYGMDVWGPGTTVTVSS
VL: DIQLTQSPSTLSASVGDRATISCRSSQSINTYLHWYQQKPGEAPKLLIYAASTLQSGVPSRFSGSGSGTDFTLTITTLQPEDFATYYCQQSFTTPLTFGGGTKVEIK
As for B1, the binding result was “binds”.
